In patent CN111484554A one finds binding data, which are given here for 1 molecule.

Amino acid sequences for entries named in this document (tags omitted). A change or cut given only in a name is not applied to a line headed by its entry. Chains listed by the source or under a name are the forms on record and can include a tag or linker.
4-1BB(24-180)-His重组蛋白 (4-1BB胞外段24-180位氨基酸, C端6个His) (Q07011, form named): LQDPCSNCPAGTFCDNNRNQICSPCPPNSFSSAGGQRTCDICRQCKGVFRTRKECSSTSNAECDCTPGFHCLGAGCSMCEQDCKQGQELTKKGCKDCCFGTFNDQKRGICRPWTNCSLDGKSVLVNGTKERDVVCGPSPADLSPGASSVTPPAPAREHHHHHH

In the experiment the target is 4-1BB(24-180)-His重组蛋白 (4-1BB胞外段24-180位氨基酸, C端6个His) (UniProt Q07011). The experiment is described as follows: ELISA, hybridoma supernatant on coated 4-1BB monomer (300 ng/well). In general terms: ELISA stands for enzyme-linked immunosorbent assay.

These are yes or no findings as the source states them, for the method shown. Some binding calls cover weakened binding; strength is not graded here.

B1: 11B6抗体 (鼠源4-1BB单克隆抗体) (antibody, mouse IgG1, kappa, V domains shown)
VH: QVQLQQPGAELVRPGASVKLSCKASGYTFTSYWINWVKQRPGQGLEWIGNIYPSDSYTNYNQKFKDKATLTVDKSSSTAYMQLSSPTSEDSAVYYCTRESQTGTGYYAMDYWGQGTSVTVSS
VL: DIQMTQTTSSLSASLGDRVTISCRASQDISNYLNWYQQKPDGTVKLLIYYTSRLHSGVPSRFSGSGSGTDYSLTISNLEQEDIATYFCQQGNTLPWTFGGGTKLEIKR
As for B1, the binding result is reported as “binds”.
